Measured values as given in PubChem BioAssay AID1671190 (National Center for Advancing Translational Sciences (NCATS), 2021).
The campaign covered roughly 580,000 compounds. About 6,100 (1.1%) were called active. Inconclusive results, whose numbers are uncertain, are shown with a selection of clear calls. Calls follow the shape of the dose curve; as a rule, active = well fitted inhibition curve with a large enough effect; inconclusive = small, poorly fitted or top-dose-only effect, or another doubt; inactive = no such curve, though single readings can be large or run the other way. Where the call is inconclusive, the potency comes from a doubtful curve fit.

The chains behind the UniProt entries cited, without tags or fusion partners. Where a name states a change or a piece, a line headed by the entry shows the natural chain unless it says otherwise.
UniProt P18054: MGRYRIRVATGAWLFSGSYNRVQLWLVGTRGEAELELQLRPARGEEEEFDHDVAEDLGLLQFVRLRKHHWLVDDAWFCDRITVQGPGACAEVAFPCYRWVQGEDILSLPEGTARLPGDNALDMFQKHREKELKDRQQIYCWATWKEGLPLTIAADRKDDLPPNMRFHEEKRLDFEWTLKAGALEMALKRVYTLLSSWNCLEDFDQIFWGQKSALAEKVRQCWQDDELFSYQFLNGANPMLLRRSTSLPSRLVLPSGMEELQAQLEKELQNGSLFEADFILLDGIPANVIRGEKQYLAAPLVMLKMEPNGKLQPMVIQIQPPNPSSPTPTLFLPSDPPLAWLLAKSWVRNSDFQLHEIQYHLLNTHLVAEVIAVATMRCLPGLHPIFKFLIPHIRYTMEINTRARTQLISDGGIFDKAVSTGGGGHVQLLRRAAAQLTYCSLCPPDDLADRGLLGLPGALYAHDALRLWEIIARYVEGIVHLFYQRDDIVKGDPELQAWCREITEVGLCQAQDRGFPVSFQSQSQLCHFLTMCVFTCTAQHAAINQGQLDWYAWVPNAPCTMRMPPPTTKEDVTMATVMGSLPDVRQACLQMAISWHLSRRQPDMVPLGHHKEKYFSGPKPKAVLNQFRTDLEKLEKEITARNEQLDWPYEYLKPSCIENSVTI

Molecular target: Polyunsaturated fatty acid lipoxygenase ALOX12 (Homo sapiens) (UniProt P18054)
Assay: Primary qHTS assay for inhibitors of human arachidonate 12S-lipoxygenase (ALOX12): Round 2
Settings: purified 12hLO, xylenol orange hydroperoxide absorbance; series mostly up to 108 µM
Summary of the method: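 Hydroperoxide product was detected by ferrous iron/xylenol orange as the 573 to 405 nm absorbance ratio. Arachidonic acid at 40 uM (final) was turned over for 30 min at room temperature by 150 nM human 12hLO, pH 7.0 Hepes buffer, after 15 min compound preincubation.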
Potency is read from the fitted curve at half-maximal effect.

Compound	Potency
COC(=O)c1ccc(Oc2coc3cc(OCc4ccc(Cl)cc4)ccc3c2=O)cc1	inactive
CCn1cc(C(=O)NC(=S)Nc2ccccc2Br)cn1	active: 28.2 µM
C=CCOc1c(Br)cc(CNn2c(C)n[nH]c2=S)cc1OCC	inconclusive: 35.5 µM [inhibitor, single point]
OC(c1ccccc1)(c1ccccc1)C1CCN(CCCOc2ccc(F)cc2)CC1	inconclusive: 50.1 µM [inhibitor, partial curve, poor fit]
Cc1cccc(C2(c3cccc(C)c3)CC2C(=O)N/N=C/C=C/c2ccccc2)c1 (stereo not drawn)	inactive
Cc1ccccc1CN1C(=O)c2ccccc2S(=O)c2ccc(C(=O)NC3CCC(C)CC3)cc21 (stereo not drawn)	inconclusive: 100 µM [inhibitor, partial curve, poor fit]
O=C(O)c1cccc(NS(=O)(=O)c2ccc(Oc3ccc(S(=O)(=O)Nc4cccc(C(=O)O)c4)cc3)cc2)c1	inactive
CC(=O)N1c2c(cc(Br)cc2S(=O)(=O)N2CCN(c3cc(C)ccc3C)CC2)CC1C (stereo not drawn)	inactive
CCCCc1ccc(NC(=S)Nc2ccc(Nc3ccc(OC)cc3)cc2)cc1	active: 35.5 µM
CCn1c(NCCCO)nc2c(c1=O)C(C)(CC)Cc1ccccc1-2 (stereo not drawn)	inactive
CCOc1cccc(CN2CCCC(c3[nH]ncc3-c3cccc(C(F)(F)F)c3)C2)c1O (stereo not drawn)	inactive
COC(=O)[C@]12CCCCC=C1N(Cc1cccc3ccccc13)C(=O)[C@H](CC(=O)NCc1ccc(OC)c(OC)c1)C2	inactive
Cc1cccc(CNc2ncncc2-c2ccccc2CN(C)C)c1	inactive
CN(CC1CCOCC1)C(=O)CC1C(=O)NCCN1CC(c1ccccc1)c1ccccc1 (stereo not drawn)	inconclusive: 39.8 µM [inhibitor, single point]
N#Cc1nc(COc2ccc(Br)cc2)oc1NCc1ccco1	inconclusive: 35.5 µM [inhibitor, partial curve, poor fit]
CCc1ccc(NC(=O)c2sc3nc(C)c(Cl)c(C)c3c2NC(=O)c2ccccc2OC)cc1	inactive
COC(=O)[C@@H]1Cc2c([nH]c3ccccc23)[C@H]2C[C@H](NCCCn3ccnc3)C[C@@H](c3ccccc3F)N21	inactive
CN(C)/C=N/N(C)c1ncccc1[N+](=O)[O-]	inconclusive: 8.91 µM [inhibitor, partial curve, poor fit]
CN=C(NC#N)SCC(=O)c1ccc(Cl)cc1Cl	inconclusive: 100 µM [inhibitor, partial curve, poor fit]
O=C(CNCc1ccc(Cl)cc1)N1CCc2ccccc2C1	active: 31.6 µM
CSc1ccc(/C=C/C(=O)N2CCCN(C)CC2)cc1	inconclusive: 63.1 µM [inhibitor, partial curve, poor fit]
O=C(O)c1cccc(S(=O)(=O)Nc2ccc(O)c(Sc3nc4ccccc4s3)c2)c1	inconclusive: 44.7 µM [inhibitor, partial curve, poor fit]

Compound	Potency
N#Cc1c(-c2ccco2)c2c([nH]c1=S)CCCC2	active: 31.6 µM
CCOC(=O)c1cc(C)[nH]c(=O)c1C#N	inconclusive: 35.5 µM [inhibitor, partial curve, poor fit]
COc1ccc(OC)c(NC(=O)C2=C(C)C(=O)OC23CCCCCC3)c1	inconclusive: 35.5 µM [inhibitor, partial curve, poor fit]
OC(COc1cccc(OCC(O)CN2CCOCC2)c1)CN1CCOCC1 (stereo not drawn)	inconclusive: 6.31 µM [inhibitor, full curve, poor fit]
COc1ccc(-n2c(-c3ccc(OC)c(OC)c3)n[nH]c2=S)cc1	active: 17.8 µM
Cn1c(=O)c2c(nc(N3CCOCC3)n2Cc2cccc(C(F)(F)F)c2)n(C)c1=O	inactive
Cc1ccc(Nc2nc(N)c([N+](=O)[O-])c(N3CCCC(C)C3)n2)cc1C (stereo not drawn)	inactive
C/C=C/C(=O)Nc1cccc(C2=NOC3(C2)C[C@@H](C(N)=O)N(C(=O)c2cc([N+](=O)[O-])cc([N+](=O)[O-])c2)C3)c1 (stereo partly drawn)	inconclusive: 44.7 µM [inhibitor, partial curve, poor fit]
CN(C(=O)c1cccnc1)c1nc(-c2ccccc2)cs1	inactive
O=[N+]([O-])c1ccc2[nH]c(=S)[nH]c2c1	inconclusive: 50.1 µM [inhibitor, partial curve, poor fit]
Brc1cccc(OCCOCCn2ccnc2)c1	inconclusive: 0.398 µM [inhibitor, full curve, poor fit]
O=C(NC1CCCC1)C1CCCN(C2CCN(Cc3ccncc3)CC2)C1 (stereo not drawn)	inactive
CCOC(=O)/C(C#N)=C/c1cn(CCC(=O)O)nc1-c1ccccc1	inactive
COc1ccc(C(=O)C2CCCN(C(=O)c3ccc(OC)o3)C2)c(C)c1 (stereo not drawn)	inconclusive: 35.5 µM [inhibitor, partial curve, poor fit]
COc1cccc(N2CCN(CC(=O)Nc3ccccc3C(=O)NCCc3ccccc3)CC2)c1	inconclusive: 50.1 µM [inhibitor, single point]
CCOc1ccc(/C(O)=C2\C(=O)C(=O)N(c3ccccn3)C2c2ccccc2F)c(C)c1 (stereo not drawn)	inconclusive: 0.562 µM [inhibitor, full curve, poor fit]
OC[C@@H]1CN(Cc2ccc(Cl)cc2)C[C@H](n2cnc3c(NCc4ccc(F)cc4)ncnc32)O1	inactive
CCOC(=O)N1CCc2c(sc(NCc3sccc3C)c2C(=O)Nc2ccc(OC)cc2OC)C1	inconclusive: 44.7 µM [inhibitor, partial curve, poor fit]
COC(=O)c1ccc(NC(=O)CNC(=O)c2sc3ccccc3c2Cl)cc1	inconclusive: 126 µM [inhibitor, single point]
CC(C)(C)NC(NC(=O)c1ccc(C(C)(C)C)cc1)C(Cl)(Cl)Cl (stereo not drawn)	inconclusive: 2.51 µM [inhibitor, full curve, poor fit]
Nc1ccc(C(=O)OCC(=O)NC2CCCc3ccccc32)cc1[N+](=O)[O-] (stereo not drawn)	inconclusive: 63.1 µM [inhibitor, partial curve, poor fit]

Nothing new here: entries from further up.
Compound	Potency
O=C(NC1CCCC1)C1CCCN(C2CCN(Cc3ccncc3)CC2)C1 (stereo not drawn)	inactive
CCOC(=O)/C(C#N)=C/c1cn(CCC(=O)O)nc1-c1ccccc1	inactive
COc1ccc(C(=O)C2CCCN(C(=O)c3ccc(OC)o3)C2)c(C)c1 (stereo not drawn)	inconclusive: 35.5 µM [inhibitor, partial curve, poor fit]
COc1cccc(N2CCN(CC(=O)Nc3ccccc3C(=O)NCCc3ccccc3)CC2)c1	inconclusive: 50.1 µM [inhibitor, single point]
